# Measured values published in patent US12678480B2 (NATIONAL CHENG KUNG UNIVERSITY, priority 2021, dated 2026).
# Ends that are not written are not given here.
# Experiment: general procedure: Fmoc solid-phase peptide synthesis; Fmoc-lys (boc) Wang resin; DIC
# Conditions: whole synthesis, scale 1 g resin
substance,measurement,value
MEPGGARLRLQRTEGLGGERERQPCGDGNTETHRAPDLVQWYGRKKRRQRRRK-OH,final HPLC purity,about 95.46%
